# Assay results reported in PubChem BioAssay AID1458 (National Center for Advancing Translational Sciences (NCATS), 2008).
# Among all 210,000 compounds or so, about 5,900 (2.8%) were called active. Roughly 5% stayed inconclusive and do not appear here. Calls come from the whole dose curve; as a rule, active = well fitted activation curve with a large enough effect; inconclusive = small, poorly fitted or top-dose-only effect; inactive = no such curve, though single readings can be large or run the other way. Only a part is listed here, and it is no random draw. Entries without a call were filed so in the source.
# Test: qHTS Assay for Enhancers of SMN2 Splice Variant Expression; note: nearly all actives have a fitted effect of over 55% in size; for activity change, positive = activation: % of control where 0% means no effect
# Conditions: HEK293 SMN2-luciferase splicing reporter, luminescence, 30-36 h; activity change, positive = activation: at 46.1 µM (top of the series) unless noted
# Outline: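 HEK293 cells carry an SMN2 minigene-luciferase reporter in which exon 7 inclusion puts luciferase in frame. Cells were seeded at 2000 cells/well, attached for 10-12 hours, then exposed to compounds for 30-36 hours at 37C before ONE-Glo luminescence.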
# Potency is the fitted concentration of half-maximal effect.
Compound,Potency,"activity change, positive = activation"
CCOc1ccc2nc(N3CCCCCC3)sc2c1,active: 7.94 µM,–
N#Cc1sc2nc(-c3cccs3)cc(-c3ccc(F)cc3)c2c1N,–,-7.37%
Cc1ccccc1N1C(N)=NC(N)=NC1(C)C,–,51.1%
O=C(CSc1ncnc2ccccc12)c1ccco1,–,31.2%
CCCCN(CCCC)C(=O)CSc1nnc(-c2cc(OC)c(OC)c(OC)c2)o1,–,inactive: -53.5%
O=C(NNC1CC(=O)N(c2ccc(Br)cc2)C1=O)c1cccnc1 (stereo unspecified),–,-39.7%
CCN(CC)c1ccc(C(=O)OCC(=O)N(C(C)C)C(C)C)cc1,–,-31.2%
Cc1cccc(-n2ncc3c(NCCCn4ccnc4)ncnc32)c1,active: 7.08 µM,–
O=C(CSc1nnc2ccccn12)c1ccc2c(c1)OCCO2,active: 11.2 µM,–
Cc1ccc(NC(=O)NCc2ccc3[nH]c(C)cc3c2)cc1,active: 22.4 µM,–
CCCCc1c(O)nc(SCC(=O)N2CCCCC2)n(-c2ccccc2C)c1=O,–,31%
O=C(Nc1ccccc1Cl)Nc1cccnc1Cl,–,inactive: -71.8%
COc1ccc2c(c1)CCc1cc(C(=O)N3CCN(c4ccc(N5CCOCC5)nn4)CC3)sc1-2,–,inactive: -53.2%
CCCCCCCCCC(=O)N/N=C/c1ccc(C)s1,–,48.3%
COc1ccc(C)cc1S(=O)(=O)N(CC(=O)O)c1ccccc1,–,32%
O=C1C(Nc2ccccc2)=CC(=O)c2ncccc21,–,inactive: -114%
Cc1[nH]n(-c2ccccc2)c(=O)c1C(C[N+](=O)[O-])c1ccccc1Cl (stereo unspecified),–,20.9%
O=C(Nc1ccncc1)c1ccc2c(c1)S(=O)(=O)c1ccccc1C2=O,–,inactive: -34.6%
Cc1cc2nc(-c3cccc(NC(=O)COc4ccc(Cl)c(C)c4)c3)oc2cc1C,–,56.8%
N/C(=N\OC(=O)Cc1ccc(-c2ccccc2)cc1)c1ccccn1,–,inactive: -32.7%
CN(C1CCCCC1)S(=O)(=O)c1ccc(NC(=O)C2CCCCC2C(=O)O)cc1 (stereo unspecified),–,32.3%
Cc1ccc2nc(SCC(=O)Nc3cccc(S(=O)(=O)N(C)C)c3)[nH]c2c1,–,inactive: -33.3%

Compound,Potency,"activity change, positive = activation"
Cc1ccccc1-c1ccc(Nc2ccc(C(=O)N3CCOCC3)cc2)nn1,–,3.26%
Cc1cc(NC(=S)Nc2cccnc2)ccc1Br,–,-11.7%
CC(CCc1ccccc1)NC(=O)CCCCCNc1nc(=S)[nH]c2ccccc12 (stereo unspecified),–,-41.3%
COc1cccc(/C=C/C(=O)Nc2ccccc2N2CCOCC2)c1,–,65.3%
O=C(NCCCCCCOC1=NS(=O)(=O)c2ccccc21)C(=O)Nc1ccccc1,–,64.5%
CNc1nc(N)c([N+](=O)[O-])c(NCc2ccccc2)n1,–,75%
COc1ccc(/C(N)=N/OC(=O)c2ccco2)cc1,active: 6.31 µM,–
COCC(=O)N(Cc1cc2ccc(C)cc2[nH]c1=O)c1ccc(OC)cc1,–,36.1%
COc1ccc(NC(=O)NCc2cccnc2)cc1OC,–,45.1%
Cc1nn(CC(=O)Nc2ccc3c(c2)nc(CN2CCCCC2)n3C)c(=O)c2ccccc12,–,17.3%
O=C(O)c1cc(N/N=C/c2ccc3c(c2)OCCO3)ccc1Cl,active: 0.316 µM,–
Cc1cccc(C)c1NC(=O)CCCSc1nnc(-c2ccc(F)cc2)n1-c1ccccc1,–,inactive: -55.7%
COc1cc2[nH]c(=S)n(NC(=O)CC(C)C)c(=O)c2cc1OC,–,42.1%
N#Cc1nc(-c2ccco2)oc1NCCN1CCOCC1,–,-23%
COc1ccc(-c2cnnc(N/N=C/c3ccc(OC)c(OC)c3)n2)cc1,–,-53.8%
COc1ccc(OC)c(NS(=O)(=O)c2ccc3c(c2)n(C)c(=O)n3C)c1,–,-54%
CC1(C)CNC(=O)C=C(c2ccccc2)C1,–,24.2%
O=C1c2ccccc2NC(c2ccc3c(c2)OCCO3)N1c1ccc2c(c1)OCCO2 (stereo unspecified),active: 3.55 µM,–
COc1ccc(/C=C/C(=O)c2c(O)cc(C)oc2=O)c(OC)c1,–,inactive: -33.9%
CC(C)(C)OC(=O)COc1cc(OCC(=O)OC(C)(C)C)c2c(=O)cc(-c3ccccc3)oc2c1,–,-67.5%
COc1ccc(Cl)cc1NC(=O)CN1c2ccccc2CC1C (stereo unspecified),–,inactive: -47.1%
Cc1cccc(NC(=O)NCCOCCn2c(=O)oc3ccccc32)c1C,–,45.5%

# A second format for part of the listing above.
Compound	Potency	activity change, positive = activation
O=C(NCCCCCCOC1=NS(=O)(=O)c2ccccc21)C(=O)Nc1ccccc1	–	64.5%
CNc1nc(N)c([N+](=O)[O-])c(NCc2ccccc2)n1	–	75%
COc1ccc(/C(N)=N/OC(=O)c2ccco2)cc1	active: 6.31 µM	–

# Further results follow.

Compound,Potency,"activity change, positive = activation"
Cc1cc(Cl)c(S(=O)(=O)N2CCSCC2)cc1OCC(=O)NC1CCCCC1,–,inactive: -80.2%
CCN(C(=O)COC(=O)c1cccnc1Nc1cccc(C(F)(F)F)c1)C1CCS(=O)(=O)C1 (stereo unspecified),–,-31.3%
O=C(NC(=S)Nc1ncccn1)c1ccc(Cl)cc1Cl,–,101%
COc1ccc2nc(N=NC3=C(O)CC(C)(C)CC3=O)sc2c1,–,inactive: -92%
S=C(NCc1ccc(Cl)cc1Cl)NC1CCCCC1,–,-54.7%
CC(=C/c1ccc(C(C)C)cc1)/C=N/NC(=O)CSc1ccccn1,–,inactive: 2.82% [at 1.84 µM]
O=C(COc1ccc(Cl)cc1Cl)N1CCCN(C(=O)COc2ccc(Cl)cc2Cl)CC1,–,inactive: -34.1%
CC(=O)c1c(C)[nH]c(C(=O)Nc2nc(-c3ccc(-c4ccccc4)cc3)cs2)c1C,–,inactive: -98.1%
O=S(=O)(c1cccc(C(F)(F)F)c1)N1c2ccccc2-n2cccc2[C@H]1c1cccnc1,–,inactive: -41.7% [at 9.22 µM]
O=C(NNC(=O)C1CC=CCC1C(=O)O)c1cccs1 (stereo unspecified),–,33.4%
COc1cccc2c1C(=O)c1c(O)c3c(c(O)c1C2=O)C[C@@](O)(C(=O)CO)C[C@H]3O[C@H]1C[C@@H](N)[C@H](O)[C@@H](C)O1.[W],–,inactive: -17.6% [at 9.22 µM]
COc1ccc(/C=C2\CCCC3C2=NN(C(=O)c2ccco2)C3c2ccc(OC)c(OC)c2)cc1OC (stereo unspecified),–,-32.3%
COc1cc2cc(C#N)c(SCC(=O)N3CCOCC3)nc2cc1OC,active: 12.6 µM,–
O=S(=O)(c1ccc(-c2cn3ccccc3n2)cc1)N1CCOCC1,–,inactive: -43%
CCCC(=O)Nc1nc2ccc(S(N)(=O)=O)cc2s1,–,30.9%
O=C(CCSc1nc(-c2ccco2)cc(C(F)(F)F)n1)N1CCN(c2ccccn2)CC1,–,22.2%
Cc1occc1-c1nnc(SCC(N)=O)n1Cc1ccccc1,–,0.815%
Nc1nnc(SCC(=O)c2cccc([N+](=O)[O-])c2)s1,–,inactive: -57.5%
C=CCOC(=O)C1=C(C)Nc2nnnn2C1c1cc(OC)ccc1OC (stereo unspecified),–,55%
Clc1cccc(/C=N/Nc2nc(Cl)nc3ccccc23)c1,active: 22.4 µM,–
Cc1ccc(NC(=O)c2oc3ccccc3c2NC(=O)c2cc3ccccc3o2)cc1,–,40.3%
CCC(C)C(=O)N1CCCC(c2nc(-c3cccs3)no2)C1 (stereo unspecified),–,48.1%
